# Test system: GS-CHO cells
# Assay: Spike-in of single purified metabolites into Medium A, growth of GS-CHO cells monitored 5 or 6 days
# Type: cell-based, Chinese hamster
# Settings: metabolite alone at concentrations of 1 mM or lower
# Protocol: GS-CHO cells producing a recombinant antibody were inoculated at low viable cell densities (0.1E6 cells/mL) in various conditions in 5 ml volume, 6-well plate cultures. […] The pH of the Medium A, spiked-in with any one of the nine metabolites or any combination of the nine metabolites, was adjusted to 7 before inoculating the cells (on day 0).
# For indolelactate, the stock solution (500 mM) was prepared in DMSO. […] All the conditions were run in duplicates or triplicates. Growth of the cells in above described conditions was monitored for 5 or 6 days.
structure (smiles),measurement,value
O=C(O)C(=O)Cc1ccc(O)cc1 [4-hydroxyphenylpyruvate],effect on growth of cells,potent negative effect on growth of cells

# Source: patent US12584113B2, “Method of cell culture” (Pfizer Inc., priority 2014, dated 2026)
